This assay addresses T1, epigenetic regulator UHRF1 protein (mouse (endogenous in R1 ESCs)) (UniProt Q8VDF2).
T1 sequence: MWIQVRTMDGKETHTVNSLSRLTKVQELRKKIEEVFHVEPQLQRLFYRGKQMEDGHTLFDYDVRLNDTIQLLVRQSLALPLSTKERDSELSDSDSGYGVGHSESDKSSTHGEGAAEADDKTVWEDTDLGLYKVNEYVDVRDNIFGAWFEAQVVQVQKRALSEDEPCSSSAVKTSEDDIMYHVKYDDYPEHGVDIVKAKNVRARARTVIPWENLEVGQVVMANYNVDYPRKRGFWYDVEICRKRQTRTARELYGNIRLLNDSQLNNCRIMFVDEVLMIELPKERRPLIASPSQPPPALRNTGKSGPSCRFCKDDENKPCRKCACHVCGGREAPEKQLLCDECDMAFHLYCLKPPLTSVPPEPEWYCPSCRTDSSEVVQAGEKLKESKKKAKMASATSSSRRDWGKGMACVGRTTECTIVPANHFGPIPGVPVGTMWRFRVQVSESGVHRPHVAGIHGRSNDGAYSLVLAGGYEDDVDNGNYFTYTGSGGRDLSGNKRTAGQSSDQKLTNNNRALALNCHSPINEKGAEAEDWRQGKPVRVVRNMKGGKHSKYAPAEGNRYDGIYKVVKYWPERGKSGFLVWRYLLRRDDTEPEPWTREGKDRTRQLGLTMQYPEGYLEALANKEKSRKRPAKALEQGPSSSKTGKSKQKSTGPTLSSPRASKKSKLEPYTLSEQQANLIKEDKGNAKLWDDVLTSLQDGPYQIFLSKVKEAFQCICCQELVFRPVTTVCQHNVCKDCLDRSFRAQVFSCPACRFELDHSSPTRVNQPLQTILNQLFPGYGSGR
The experiment in a line: co-IP; immunoprecipitation with anti-UHRF1 antibody from soluble extracts of ESCs in the presence of ethidium bromide to exclude DNA-mediated interaction; western blot. On the technique in general: Immunoblotting shows a protein as a band on a membrane.

The chains behind the UniProt entries cited, without tags or fusion partners.
UniProt Q6PDQ2: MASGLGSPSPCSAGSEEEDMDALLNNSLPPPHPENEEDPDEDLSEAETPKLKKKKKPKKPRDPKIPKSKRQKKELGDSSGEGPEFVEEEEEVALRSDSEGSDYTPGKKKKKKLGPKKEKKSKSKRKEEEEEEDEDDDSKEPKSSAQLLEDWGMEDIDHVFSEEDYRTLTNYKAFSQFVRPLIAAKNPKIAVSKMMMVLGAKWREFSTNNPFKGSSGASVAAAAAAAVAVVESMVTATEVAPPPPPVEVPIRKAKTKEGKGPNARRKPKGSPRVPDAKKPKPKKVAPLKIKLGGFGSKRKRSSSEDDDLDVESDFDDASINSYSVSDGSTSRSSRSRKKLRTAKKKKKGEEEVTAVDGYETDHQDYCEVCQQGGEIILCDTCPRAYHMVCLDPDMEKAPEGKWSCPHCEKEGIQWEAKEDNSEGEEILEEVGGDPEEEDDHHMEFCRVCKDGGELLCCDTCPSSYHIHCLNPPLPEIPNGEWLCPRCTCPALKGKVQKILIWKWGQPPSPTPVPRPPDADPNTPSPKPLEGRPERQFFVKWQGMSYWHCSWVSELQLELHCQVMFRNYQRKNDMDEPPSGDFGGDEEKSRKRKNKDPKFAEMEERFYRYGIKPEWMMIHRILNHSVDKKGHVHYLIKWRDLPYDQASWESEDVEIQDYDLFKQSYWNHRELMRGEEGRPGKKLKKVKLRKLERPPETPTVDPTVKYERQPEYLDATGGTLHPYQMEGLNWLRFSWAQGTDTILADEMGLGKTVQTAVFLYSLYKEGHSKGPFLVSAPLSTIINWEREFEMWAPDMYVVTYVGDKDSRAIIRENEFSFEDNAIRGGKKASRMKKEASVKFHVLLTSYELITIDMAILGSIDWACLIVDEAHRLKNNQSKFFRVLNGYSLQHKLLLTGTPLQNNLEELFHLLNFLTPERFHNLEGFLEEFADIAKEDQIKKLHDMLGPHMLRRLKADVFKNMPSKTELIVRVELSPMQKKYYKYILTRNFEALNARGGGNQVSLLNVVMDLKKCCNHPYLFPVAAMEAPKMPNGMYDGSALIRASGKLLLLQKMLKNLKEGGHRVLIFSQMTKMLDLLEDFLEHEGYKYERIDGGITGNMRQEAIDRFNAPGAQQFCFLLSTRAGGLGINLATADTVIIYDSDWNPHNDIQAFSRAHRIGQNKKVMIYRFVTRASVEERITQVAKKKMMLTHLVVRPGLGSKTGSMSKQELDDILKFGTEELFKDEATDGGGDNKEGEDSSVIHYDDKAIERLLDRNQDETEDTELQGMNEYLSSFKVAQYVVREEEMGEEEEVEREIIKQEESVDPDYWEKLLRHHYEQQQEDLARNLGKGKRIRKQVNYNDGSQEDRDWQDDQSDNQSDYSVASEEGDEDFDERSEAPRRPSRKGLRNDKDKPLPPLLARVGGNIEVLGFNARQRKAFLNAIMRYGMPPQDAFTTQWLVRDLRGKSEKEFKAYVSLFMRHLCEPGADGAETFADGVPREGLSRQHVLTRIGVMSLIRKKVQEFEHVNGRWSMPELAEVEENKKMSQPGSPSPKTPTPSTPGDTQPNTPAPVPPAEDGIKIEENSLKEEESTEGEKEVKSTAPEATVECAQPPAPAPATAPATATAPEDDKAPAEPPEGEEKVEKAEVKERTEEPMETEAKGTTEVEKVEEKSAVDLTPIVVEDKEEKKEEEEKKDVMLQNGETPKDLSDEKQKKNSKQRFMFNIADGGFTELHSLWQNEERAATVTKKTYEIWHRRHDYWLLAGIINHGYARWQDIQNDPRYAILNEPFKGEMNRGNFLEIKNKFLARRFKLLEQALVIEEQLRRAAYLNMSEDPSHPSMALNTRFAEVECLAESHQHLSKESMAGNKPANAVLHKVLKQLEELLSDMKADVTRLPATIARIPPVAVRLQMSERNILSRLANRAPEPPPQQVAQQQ

Drawing on PMC4066787, this text covers binding for 1 substance.

No constants are given. Whether binding was seen depends on the method and setting. In cells and extracts the contact can be indirect. Some results given as binding are weak or reduced against the parent protein; the word gives no strength.

With “ATPase CHD4 (from UniProt Q6PDQ2 1-1915)”, the binding result is reported as “binds”.
